Data taken from the supplement of paper PMC8728848.
This is one part of the list.

Experiments:
Assay in all cases: glycan array binding signal (z-score within array); higher = stronger binding
Conditions in all cases: glycan notation: IUPAC condensed, linker removed
[1] = molecular target: Gal(b1-4)GlcNAc(b1-2)Man(a1-6)[Man(a1-3)]Man(b1-4)GlcNAc(b1-4)GlcNAc
In short: (§1)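 Columns mapping to the same glycan were averaged after glycan names were converted to IUPAC-condensed notation. The data come from 3228 arrays in the Consortium for Functional Glycomics database, limited to those with an available protein sequence. Binding is reported as a within-array Z-score averaged across arrays of one protein sequence and across linkers.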

[2] = molecular target: Gal(b1-4)GlcNAc(b1-2)[Gal(b1-4)GlcNAc(b1-4)]Man(a1-3)[Gal(b1-4)GlcNAc(b1-2)Man(a1-6)]Man(b1-4)GlcNAc(b1-4)GlcNAc
In short: as §1

[3] = molecular target: Gal(b1-4)GlcNAc(b1-2)[Gal(b1-4)GlcNAc(b1-4)]Man(a1-3)[Gal(b1-4)GlcNAc(b1-2)[Gal(b1-4)GlcNAc(b1-6)]Man(a1-6)]Man(b1-4)GlcNAc(b1-4)GlcNAc
In short: as §1

[4] = molecular target: Gal(b1-4)GlcNAc(b1-2)[Gal(b1-4)GlcNAc(b1-4)]Man(a1-3)[GlcNAc(b1-4)][Gal(b1-4)GlcNAc(b1-2)Man(a1-6)]Man(b1-4)GlcNAc(b1-4)GlcNAc
In short: as §1

[5] = molecular target: Gal(b1-4)GlcNAc(b1-2)[Gal(b1-4)GlcNAc(b1-4)]Man(a1-3)[GlcNAc(b1-4)][Gal(b1-4)GlcNAc(b1-2)[Gal(b1-4)GlcNAc(b1-6)]Man(a1-6)]Man(b1-4)GlcNAc(b1-4)GlcNAc
In short: as §1

[6] = molecular target: Gal(b1-4)GlcNAc(b1-2)[Gal(b1-4)GlcNAc(b1-6)]Man(a1-6)[Gal(b1-4)GlcNAc(b1-2)Man(a1-3)]Man(b1-4)GlcNAc(b1-4)GlcNAc
In short: as §1

[7] = molecular target: Gal(b1-4)GlcNAc(b1-2)[Gal(b1-4)GlcNAc(b1-6)]Man(a1-6)[Gal(b1-4)GlcNAc(b1-2)Man(a1-3)]Man(b1-4)GlcNAc(b1-4)[Fuc(a1-6)]GlcNAc
In short: as §1

[8] = molecular target: Gal(b1-4)GlcNAc(b1-2)[Gal(b1-4)GlcNAc(b1-6)]Man(a1-6)[GlcNAc(b1-4)][Gal(b1-4)GlcNAc(b1-2)Man(a1-3)]Man(b1-4)GlcNAc(b1-4)GlcNAc
In short: as §1

[9] = molecular target: Gal(b1-4)GlcNAc(b1-2)[Gal(b1-4)GlcNAc(b1-6)]Man(a1-6)[GlcNAc(b1-4)][Gal(b1-4)GlcNAc(b1-2)[Gal(b1-4)GlcNAc(b1-4)]Man(a1-3)]Man(b1-4)GlcNAc(b1-4)[Fuc(a1-6)]GlcNAc
In short: as §1

[10] = molecular target: Gal(b1-4)GlcNAc(b1-3)Gal(b1-3)GalNAc
In short: as §1

[11] = molecular target: Gal(b1-4)GlcNAc(b1-3)Gal(b1-3)GlcNAc
In short: as §1

[12] = molecular target: Gal(b1-4)GlcNAc(b1-3)Gal(b1-4)Glc
In short: as §1

[13] = molecular target: Gal(b1-4)GlcNAc(b1-3)Gal(b1-4)GlcNAc
In short: as §1

[14] = molecular target: Gal(b1-4)GlcNAc(b1-3)Gal(b1-4)GlcNAc(b1-2)Man(a1-3)[Gal(b1-4)GlcNAc(b1-3)Gal(b1-4)GlcNAc(b1-2)Man(a1-6)]Man(b1-4)GlcNAc(b1-4)GlcNAc
In short: as §1

[15] = molecular target: Gal(b1-4)GlcNAc(b1-3)Gal(b1-4)GlcNAc(b1-2)Man(a1-3)[Gal(b1-4)GlcNAc(b1-3)Gal(b1-4)GlcNAc(b1-2)Man(a1-6)]Man(b1-4)GlcNAc(b1-4)[Fuc(a1-6)]GlcNAc
In short: as §1

[16] = molecular target: Gal(b1-4)GlcNAc(b1-3)Gal(b1-4)GlcNAc(b1-2)[Gal(b1-4)GlcNAc(b1-3)Gal(b1-4)GlcNAc(b1-6)]Man(a1-6)[Gal(b1-4)GlcNAc(b1-3)Gal(b1-4)GlcNAc(b1-2)Man(a1-3)]Man(b1-4)GlcNAc(b1-4)GlcNAc
In short: as §1

[17] = molecular target: Gal(b1-4)GlcNAc(b1-3)Gal(b1-4)GlcNAc(b1-2)[Gal(b1-4)GlcNAc(b1-3)Gal(b1-4)GlcNAc(b1-6)]Man(a1-6)[Gal(b1-4)GlcNAc(b1-3)Gal(b1-4)GlcNAc(b1-2)Man(a1-3)]Man(b1-4)GlcNAc(b1-4)[Fuc(a1-6)]GlcNAc
In short: as §1

[18] = molecular target: Gal(b1-4)GlcNAc(b1-3)Gal(b1-4)GlcNAc(b1-3)Gal(b1-4)GlcNAc
In short: as §1

B1: GS7807Q-bfa-507-19-507 (Bacteroides fragilis) (protein)
chain: ASCNKFDDLNTNPDAATKVTAPMLATKLILNITQQGSAKNFVYHSMLSKQIAWSENASDEQYNLFGRTDFDGYTILTNCQKMVDAANEGDKDSYAALAKFMKAYKLFYKSLEVGDIPYSDALKGEEGVQKPKYDTQKEVMRQVLEDLEEAYTLFSSGSDFDGDPIFGGDTENWKKTVVAFELKVLTHLCKKDTDADLKVKERFARLVSSGSLMTSNADNFQLVYSNKAGQLYPFYYTQNKHSDYLMMSSVIIDNLKKFNDYRMFYYASPAKAQTDKGIKDSEWDAYLSIDPSDSYSNISVLYGKGEFCLANLRYTRVPEGEPLMRLSYAEQNFILAEGAVRGWISEDASTYYKKGIEASMNFIADNTPDKEEYTHGRTITQEYIQEYLAQPVIQLSGDKEKDLEMILLQRYLASFLQHPYDAYYDYRRTGYPVLPINPSTNLNTEKNKIPTRWMYPEAEFSYNPDNANEAVQRQYNGSDDVNKLMWILQ
glycan array binding signal (z-score) [1]: -0.549
glycan array binding signal (z-score) [2]: 2.14
glycan array binding signal (z-score) [3]: -0.9
glycan array binding signal (z-score) [4]: 0.445
glycan array binding signal (z-score) [5]: 0.485
glycan array binding signal (z-score) [6]: 0.33
glycan array binding signal (z-score) [7]: 0.554
glycan array binding signal (z-score) [8]: 0.995
glycan array binding signal (z-score) [9]: -0.993
glycan array binding signal (z-score) [10]: -0.405
glycan array binding signal (z-score) [11]: -0.951
glycan array binding signal (z-score) [12]: -0.734
glycan array binding signal (z-score) [13]: -1.12
glycan array binding signal (z-score) [14]: 3.08
glycan array binding signal (z-score) [15]: 0.335
glycan array binding signal (z-score) [16]: 0.112
glycan array binding signal (z-score) [17]: -0.21
glycan array binding signal (z-score) [18]: 0.693
